Results from patent US5578496A, “Detection of autoantibodies associated with the disease myasthenia gravis” (Board of Regents, Baylor College of Medicine, priority 1994, dated 1996).
Not every detail of the peptide structures is certain; ends, links or a residue may be inferred. Where no end group is shown, it is not given here.

What was measured:
[1] = tested on: antibodies against human ACHR α chain peptides; experiment: Binding of anti-peptide antibodies to the peptides on Co-Bind plate; set-up: species or system mice; conditions: antisera diluted 1:500 (v/v) with PBS/0.05% casein; corrected for nonspecific binding to casein
Experimental: Anti-peptide antibodies were raised in outbred mice by immunization in the hind footpads of 50 μg of synthetic peptide in 100 μl emulsion prepared from equal volumes of PBS and Freund's complete adjuvant. The immunizations were done on day 1, day 15, day 30 and day 45. Rabbit immune IgG fractions with specificity against human IgG and human IgM and mouse IgG and IgM were obtained from DAKO Co. (DAKO-immunoglobulins a/s, Denmark) and Accurate Chemical Scientific Corp. (Westbury, N.Y.), respectively.
1.0 mg of peptide was dissolved in 5 μl of dimethylformamide and then diluted to 50 μg/ml with 0.15M NaCl in 0.01M sodium phosphate buffer, pH 7.2, containing 0.01% thimerosal (PBS). Aliquots of the peptide solution, were applied to wells of the 96-well Co-Bind plate. The plates were incubated at room temperature overnight with continuous gentle rocking. After washing three times with PBS, the wells were quenched (3 hrs., room temperature) with 0.2 ml of 1.0M glycine-NaOH, pH 7.2. After washing the wells three times with PBS, an aliquot (100 μl) of a 0.1% solution of casein in PBS were added to each well and the plates were incubated at 37° C. for 90 min to block the remaining reactive groups on the wells. The plates were then washed three times with PBS and incubated (37° C., 4 hrs) with 100 μl of plasma or mouse antiserum (1:200 or 1:500 dilution with PBS containing 0.1% casein). For binding to peptide α182-198, the plates were blocked with, and plasma were diluted in, 0.5% (instead of 0.1%) casein in PBS. After washing four times with PBS, the plates were incubated (4° C., overnight) with 100 μl of rabbit anti-human (IgG+IgM) or anti-mouse (IgG+IgM) (2.5 μg/ml) in PBS containing 0.1% casein. The plates were washed four times with PBS and incubated (3 hrs., room temperature) with ^125 I-labeled protein A (2×10^5 cpm) in 100 μl of PBS-0.1% casein. After washing five times with PBS, bound radioactivity was removed from the wells, by the addition of 100 μl of 5% SDS in 0.2N NaOH. The plates were allowed to stand for 20 min at room temperature and the solutions were then transferred quantitatively to small test tubes for counting. This procedure was repeated three times, and the solutions in each case were added to the respective tubes. The samples were counted on a Beckman 4000 gamma counter. The radioactivity bound by three unrelated proteins (casein, cytochrome C and bovine serum albumin) and a nonsense peptide (ESSGTGIESSGTGI) (Atassi et al. 1987) were used as controls to correct for nonspecific binding. It should be noted that in other experiments, in which the plates were blocked and all dilutions were made with PBS containing human adult hemoglobin or bovine serum albumin, the non-specific binding was considerably higher than when casein was used. […]

[2] = tested on: autoantibodies in MG plasma; experiment: Binding of autoantibodies in human plasma to synthetic peptides on Co-Bind plate (125I-protein A RIA); conditions: plasma of nine MG patients

Sequence | Antibody Binding to immunizing Peptide (CPM) [1] [CPM] | recognized by autoantibodies, number of MG individuals [2]
FKDYSSVVRPVEDHRQ [α12-27] | 93038 | 8 out of 9 individuals
AIFKSYGEIIVTHFPFD [α122-138] | 64218 | 8 out of 9 individuals
RGWKHSVTYSGGPDTPY [α182-198] | 68217 | 9 out of 9 individuals
QYTGHITWTPPAIFKS [α111-126] | 51177 | 6 out of 9 individuals
